Several values for one entry are separate records, joined by “and”; a condition that tells them apart may be missing. Equal values may be shown once. *: point of attachment. Trt = c1ccc(C(c2ccccc2)(c2ccccc2)*)cc1; Fmoc = O=C(OCC1c2ccccc2-c2ccccc21)*; Acm = CC(=O)NC*; tBu = CC(C)(C)*
Tests used:
[1] = general procedure: hybrid (solid and solution phase) peptide synthesis; 2-chlorotrityl chloride (2-ClTrt) resin; HBTU/Cl-HOBt/DIEA (fragment condensation in solution); conditions: counter-ion exchange with ammonium acetate/AcOH
[2] = general procedure: hybrid (solid and solution phase) peptide synthesis; 2-chlorotrityl chloride resin; HBTU/Cl-HOBt/DIEA (fragment condensation in solution); conditions: whole synthesis, counter-ion exchange with ammonium acetate/AcOH
[3] = oxidative folding step, RP-HPLC, 215 nm
[4] = whole synthesis, RP-HPLC, 215 nm, scale 200 mmol
[5] = whole synthesis, scale 200 mmol

Row | Substance | crude HPLC purity [1, 3] [% HPLC] | final HPLC purity [1, 3] [% pure] | final HPLC purity ([1]; purification step, RP-HPLC, 215 nm) | final HPLC purity ([1]; purification step, RP-HPLC, 215 nm, run 1) [% HPLC purity] | final HPLC purity ([1]; purification step, RP-HPLC, 215 nm, run 2) [%] | step yield ([1]; purification step) | step yield ([1]; purification step, run 1) [%] | step yield ([1]; purification step, run 2) [%] | final HPLC purity ([1]; whole synthesis, UPLC 215 nm, scale 50 g) | crude HPLC purity ([1]; whole synthesis, RP-HPLC, 215 nm, scale 5.2 mmol) [%] | crude HPLC purity [1, 4] [%] | crude yield ([1]; whole synthesis, scale 5.2 mmol) [%] | crude mass [1, 5] [g] | crude yield [1, 5] [%] | crude mass ([2]; scale 5.2 mmol) [g] | crude HPLC purity ([1]; whole synthesis, RP-HPLC, 215 nm, scale 3.4 mmol) [%] | crude yield ([1]; whole synthesis, scale 3.4 mmol) [%] | crude mass ([2]; scale 3.4 mmol) [g]
1 | Asn^1-Asp^2-Glu^3-Cys^4-Glu^5-Leu^6-Cys^7-Val^8-Asn^9-Val^10-Ala^11-Cys^12-Thr^13-Gly^14-Cys^15-Leu^16 | 55.0 | 96.1 | 97.9% and 98.47% | 97.2 | 97.9 | 74% and 93% | 66.6 | 86.0 | ˜98% | – | – | – | – | – | – | – | – | –
2 | Boc-Asn (Trt)-Asp (OtBu)-Glu (OtBu)-Cys (Trt)-Glu (OtBu)-Leu-OH | – | – | – | – | – | – | – | – | – | 94.6 | 94.2 | 76.9 | 247.0 | 83.7 | 5.896 | – | – | –
3 | Fmoc-C(Acm)VNVAC(Trt)T(tBu)G-OH | – | – | – | – | – | – | – | – | – | – | 90.1 | – | 213.7 | 66.8 | – | 87.8 | 61.3 | 3.337
